Assay results reported in PMC4542127.
These are yes or no findings as the source states them, for the method shown. In cells and extracts the contact can be indirect. Some entries that bind do so weakly or less than the wild type.

By UniProt entry, the sequences of proteins in these tests, tags left out.
UniProt P53667: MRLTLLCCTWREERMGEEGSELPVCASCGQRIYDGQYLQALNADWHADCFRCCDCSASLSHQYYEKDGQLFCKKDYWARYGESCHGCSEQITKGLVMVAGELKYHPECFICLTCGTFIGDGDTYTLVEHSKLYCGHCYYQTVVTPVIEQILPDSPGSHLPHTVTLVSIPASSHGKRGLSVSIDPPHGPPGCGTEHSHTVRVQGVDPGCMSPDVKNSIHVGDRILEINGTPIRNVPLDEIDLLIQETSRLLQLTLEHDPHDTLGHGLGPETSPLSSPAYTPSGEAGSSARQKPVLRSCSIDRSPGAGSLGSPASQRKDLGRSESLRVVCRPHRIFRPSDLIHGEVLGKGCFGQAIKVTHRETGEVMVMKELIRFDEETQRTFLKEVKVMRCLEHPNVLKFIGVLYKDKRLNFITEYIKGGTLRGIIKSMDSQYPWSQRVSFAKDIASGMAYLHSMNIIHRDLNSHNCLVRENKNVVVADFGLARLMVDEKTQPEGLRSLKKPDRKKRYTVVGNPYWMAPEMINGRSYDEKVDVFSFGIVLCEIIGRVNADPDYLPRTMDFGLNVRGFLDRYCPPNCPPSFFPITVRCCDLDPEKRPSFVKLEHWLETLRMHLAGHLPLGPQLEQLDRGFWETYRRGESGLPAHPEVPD

Target: T1, p57 (human (endogenous in BEL7402 and SMMC7721)) (UniProt P49918)
T1 sequence: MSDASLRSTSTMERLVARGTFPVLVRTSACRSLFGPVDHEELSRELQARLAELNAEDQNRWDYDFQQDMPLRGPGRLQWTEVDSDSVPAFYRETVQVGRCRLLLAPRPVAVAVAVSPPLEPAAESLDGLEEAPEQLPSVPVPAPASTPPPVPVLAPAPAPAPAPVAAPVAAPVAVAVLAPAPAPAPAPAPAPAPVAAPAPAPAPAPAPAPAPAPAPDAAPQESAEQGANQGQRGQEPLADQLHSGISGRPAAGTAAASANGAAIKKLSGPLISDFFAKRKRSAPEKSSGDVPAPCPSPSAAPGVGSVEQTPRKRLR
Assay: co-IP; anti-p57 antibody on Dynabeads protein G incubated with hepatoma cell lysate (0.1 % NP-40 lysis buffer, 50 mM Tris pH 7.4, 250 mM NaCl, 5 mM EDTA) 10 min at room temperature; washed with PBS; immunoblot with anti-LIMK1; cells stably transfected with shNC or shp57 (p57 knock-down)

With “LIM domain kinase 1 (from UniProt P53667 1-647) (enzyme)” the binding was “binds”.
